{"source": "patent US6531462B2", "about": "“Medicament for treating obesity and improving lipid metabolism” (priority 1997, dated 2003)", "type_in_all_cases": "in vivo, CDF1 male mice", "key": {"[1]": {"experiment": "Example 1: body weight, body fat and feed intake of mice fed feed supplemented with 0.5% test compound", "experimental": "5-Sitosten-3-one was prepared according to the method of Parish (Parish, E. J., et al., Synthetic Communication, 22, pp.2839-2847, 1992) by using β-sitosterol (Tokyo Chemical Industry Co., Ltd.) as a starting material and used in the experiments. The content ratio of 24-ethyl and 24-methyl compounds in the synthesized product was 6.5:3.5. As experimental animals, six CDF1 male mice (5-week old, Charles River Japan Inc.) were used in each experimental group. The animals were fed in aluminum cages for mice, and allowed to feed and water ad libitum. The animals were fed for 2 weeks under feeding conditions at a temperature of 24±1° C. and a relative humidity of 55±5%, where light and darkness were controlled to change every 12 hours, and each cage and floor mat (white flakes) were exchanged twice a week.\nModified AIN (Oriental Yeast Co.) was used as basic feed and mixed with 0.5% 5-sitosten-3-one to prepare test feeds. A feed used as a positive control was prepared by adding 0.5% of 4-cholesten-3-one (Japanese Patent Unexamined Publication No. Hei 5-170651/1993) to the basic feed. Non-treated mice as a control were fed solely with the basic feed. The basic feed was composed of 22.8% crude protein, 54.1% carbohydrates, 6.0% lipids, 4.9% fibers, 2.9% ash, and 8.7% water, and its calorie was 1,523 kJ. The feed was stored at 4° C. after preparation, and a fresh feed was supplied every day.\nThe animals were weighed at given intervals of time, and the average values and standard errors of the experimental groups were determined. In addition, feed consumptions were measured at given intervals of time and daily averages per mouse were determined. The animals were observed every day. After the end of the feeding, the animals were anesthetized to death with carbon dioxide gas, and bloods were collected from the vena cava to obtain serums. The animals were autopsied, and the brains, lungs, hearts, livers, spleens, kidneys, testis, adrenals and intraperitoneal fat were examined by the naked eye and weighed. As to serum lipid, neutral fats were measured by using a clinical test kit based on the enzyme method (Triglyceride-E Test, Wako Pure Chemicals Industries Co., Ltd.), and total cholesterol and cholestanol were measured by the method of Kasama (T. Kasama, et al., J. Chromatogr., 400, 241, 1987) with modifications, where the amount of benzoyl chloride was increased by 10 times, the reaction time was doubled, and the measurement was performed by using a high performance liquid chromatography system. Significant differences were determined by t-test for body weights and serum lipids on the basis of the non-treated control mice."}, "[2]": {"experiment": "Example 2: body weight, feed intake, feed efficiency and intraperitoneal fat of mice fed 0.5% test compound", "settings": "0.5% in feed, total for 14 days", "description": "As 24-alkylcholesten-3-ones, (1) 4-sitosten-3-one, (2) 6α-hydroxy-4-sitosten-3-one, and (3) 6-hydroxy-4-sitosten-3-one (α:β=2.6:1) were synthesized by using β-sitosterol (Tokyo Chemical Industries Co., Ltd.). The content ratio of 24-ethyl and 24-methyl compounds in the synthesized product was 6.5:3.5. As experimental animals, six CDF1 male mice (5-week old, Charles River Japan Inc.) were used in each experimental group. A purified feed (Modified AIN, Oriental Yeast Co.) was used as a basic feed and mixed with 0.5% test compounds to prepare test feeds. The animals were allowed to feed and water ad libitum. The animals were weighed and observed to examine general conditions twice a week. The animals were subjected to autopsy after the end of the feeding, and their bloods were collected. Lipid concentrations in the separated serums were measured by using a clinical test kit based on the enzyme method (Wako Pure Chemicals Industries Co., Ltd.). Significances of the resulting experimental values were examined by the variance analysis. The other experimental conditions were the same as in Example 1."}, "[3]": {"experiment": "Example 3: dose response of 5-sitosten-3-one on body weight, feed intake, feed efficiency and intraperitoneal fat", "settings": "for Feed intake: total throughout the experimental period", "description": "5Sitosten-3-one was synthesized from β-sitosterol (Tokyo Chemical Industry Co., Ltd.) according to the method of Parish (Parish, E. J., et al., Synthetic Communication, 22, pp.2839-2847, 1992), and purified by silica gel column chromatography and recrystallization. The content ratio of 24-ethyl isomer and 24-methyl compounds in the synthesized product was 6.5:3.5. As experimental animals, thirty 4-week old CDF1 male mice were purchased from Charles River Japan Inc. and divided into five experimental groups each composed of six mice. The test compounds were administered as the admixture in feeds, and the following groups were provided: (1) 0.1% addition, (2) 0.3% addition, (3) 0.5% addition, (4) a lipid-free feed without the addition of the test compound, and (5) control group without the addition of the test compound. A purified feed (modified AIN, Oriental Yeast Co.) was used as a basic feed, and supplemented with 10% soybean oil (Wako Pure Chemical Industries Co., Ltd.) to prepare solid feeds with or without the addition of the test compound. The lipid-free feed, per se, was processed to obtain solid feed. The animals were fed for a week with the feed for the control without the addition of test compound for acclimatization, and then the animals were allowed to feed with the respective feed ad libitum.\nEach group of animals was housed in an aluminum cages of 22×33×11(h)cm (6 mice per a cage), and feedings were carried out at a temperature of 24±1° C. and a relative humidity of 55±5%, where light and darkness were controlled change every 12 hours. Measurements of body weights and feed intakes, and observations of general conditions were conducted three times a week. After the feeding for 3 week with the test feeds, the animals were subjected to autopsy and their bloods were collected. As serum lipid analyses, triglyceride, phospholipid, free fatty acid, total cholesterol, and HDL-cholesterol were measured by using a clinical test kit (Wako Pure Chemicals Industries Co., Ltd. ). Significances of the resulting values were examined by the variance analysis for the groups treated with the medicament, or by the t-test for the lipid-free feed group."}, "[4]": {"settings": "0.5% in feed, 2 weeks, daily average per mouse"}, "[5]": {"settings": "ratio relative to the non-treated control group, CDF1 mice"}}, "data": [{"compound": "CC(C)CCC[C@@H](C)[C@H]1CC[C@H]2[C@@H]3CCC4=CC(=O)CC[C@]4(C)[C@H]3CC[C@]12C", "note": "[4-Cholesten-3-one, 4-cholesten-3-one]", "values": [{"measurement": "Feed intake", "setting": "[1]; [4]", "result": 4.80, "unit": "g/mouse/day"}, {"measurement": "Feed intake", "setting": "[1]; [5]", "result": 97, "unit": "%"}]}, {"compound": "CC[C@H](CC[C@@H](C)[C@H]1CC[C@H]2[C@@H]3C[C@H](O)C4=CC(=O)CC[C@]4(C)[C@H]3CC[C@]12C)C(C)C", "note": "[6α-Hydroxy-4-sitosten-3-one, 6α-hydroxy-4-sitosten-3-one]", "values": [{"measurement": "Feed intake", "setting": "[2]", "result": 39.60, "unit": "g/mouse"}]}, {"compound": "CC(C)CCC[C@@H](C)[C@H]1CC[C@H]2[C@@H]3CC[C@@H]4CC(=O)CC[C@]4(C)[C@H]3CC[C@]12C", "note": "[5 β-Cholestan-3-one, 5β-cholestan-3-one]", "values": [{"measurement": "Feed intake", "setting": "[1]; [5]", "result": 91, "unit": "%"}]}, {"compound": "CC[C@H](CC[C@@H](C)[C@H]1CC[C@H]2[C@@H]3CCC4=CC(=O)CC[C@]4(C)[C@H]3CC[C@]12C)C(C)C", "note": "[4-Sitosten-3-one, 4-sitosten-3-one]", "values": [{"measurement": "Feed intake", "setting": "[2]", "result": 42.78, "unit": "g/mouse"}]}, {"compound": "CC(C)CCC[C@@H](C)[C@H]1CC[C@H]2[C@@H]3C=CC4=CC(=O)CC[C@]4(C)[C@H]3CC[C@]12C", "note": "[Colesta-4,6-dien-3-one]", "values": [{"measurement": "Feed intake", "setting": "[1]; [5]", "result": 79, "unit": "%"}]}, {"compound": "CC[C@H](CC[C@@H](C)[C@H]1CC[C@H]2[C@@H]3CC(O)C4=CC(=O)CC[C@]4(C)[C@H]3CC[C@]12C)C(C)C", "note": "(stereo partly drawn) [6-Hydroxy-4-sitosten-3-one (α:β = 2.6:1), 6-hydroxy-4-sitosten-3-one (α:β=2.6:1)]", "values": [{"measurement": "Feed intake", "setting": "[2]", "result": 41.77, "unit": "g/mouse"}]}, {"compound": "CC(C)CCC[C@@H](C)[C@H]1CC[C@H]2[C@@H]3CC(=O)C4=CC(=O)CC[C@]4(C)[C@H]3CC[C@]12C", "note": "[4-Cholestene-3,6-dione]", "values": [{"measurement": "Feed intake", "setting": "[1]; [5]", "result": 101, "unit": "%"}]}, {"compound": "CC(C)CCC[C@@H](C)[C@H]1CC[C@H]2[C@@H]3C[C@@H](Br)C4=CC(=O)CC[C@]4(C)[C@H]3CC[C@]12C", "note": "[6 β-Bromo-4-cholesten-3-one, 6β-bromo-4-cholesten-3-one]", "values": [{"measurement": "Feed intake", "setting": "[1]; [5]", "result": 71, "unit": "%"}]}, {"compound": "5-sitosten-3-one (24-ethylcholest-5-en-3-one)", "values": [{"measurement": "Feed intake", "setting": "[1]; [4]", "result": 4.43, "unit": "g/mouse/day"}, {"measurement": "Appetite / appetite suppressing effect", "setting": "[1]; CDF1 mice, compound in feed", "result": "normal except for slight suppression and weak"}, {"measurement": "Feed intake", "setting": "[1]; [5]", "result": 89, "unit": "%"}, {"measurement": "Feed intake (change)", "setting": "[3]; 0.1% addition group", "result": "unchanged"}, {"measurement": "Feed intake", "setting": "[3]; 0.1% addition to feed", "result": 61.56, "unit": "g/mouse"}, {"measurement": "Feed intake (change)", "setting": "[3]; 0.3% addition group", "result": "slightly decreased"}, {"measurement": "Feed intake", "setting": "[3]; 0.3% addition to feed", "result": 58.79, "unit": "g/mouse"}, {"measurement": "Decrease of feed intake", "setting": "[3]; 0.5% addition group, in total for 3 weeks", "result": "about 13%"}, {"measurement": "Feed intake", "setting": "[3]; 0.5% addition to feed", "result": 53.58, "unit": "g/mouse"}]}, {"compound": "CC(C)CCC[C@@H](C)[C@H]1CC[C@H]2[C@@H]3CC=C4CC(=O)CC[C@]4(C)[C@H]3CC[C@]12C", "note": "[5-Cholesten-3-one]", "values": [{"measurement": "Feed intake", "setting": "[1]; [5]", "result": 61, "unit": "%"}]}, {"compound": "CC(C)CCC[C@@H](C)[C@H]1CC[C@H]2[C@@H]3CC(O)C4=CC(=O)CC[C@]4(C)[C@H]3CC[C@]12C", "note": "(some centres unmarked) [6-Hydroxy-4-cholesten-3-one]", "values": [{"measurement": "Feed intake", "setting": "[1]; [5]", "result": 96, "unit": "%"}]}]}
